{"sequences": {"note": "Sequences of proteins named here, by UniProt entry; tags and fusion partners are left off. A change or cut given only in a name is not applied to a line headed by its entry.", "UniProt P18054": "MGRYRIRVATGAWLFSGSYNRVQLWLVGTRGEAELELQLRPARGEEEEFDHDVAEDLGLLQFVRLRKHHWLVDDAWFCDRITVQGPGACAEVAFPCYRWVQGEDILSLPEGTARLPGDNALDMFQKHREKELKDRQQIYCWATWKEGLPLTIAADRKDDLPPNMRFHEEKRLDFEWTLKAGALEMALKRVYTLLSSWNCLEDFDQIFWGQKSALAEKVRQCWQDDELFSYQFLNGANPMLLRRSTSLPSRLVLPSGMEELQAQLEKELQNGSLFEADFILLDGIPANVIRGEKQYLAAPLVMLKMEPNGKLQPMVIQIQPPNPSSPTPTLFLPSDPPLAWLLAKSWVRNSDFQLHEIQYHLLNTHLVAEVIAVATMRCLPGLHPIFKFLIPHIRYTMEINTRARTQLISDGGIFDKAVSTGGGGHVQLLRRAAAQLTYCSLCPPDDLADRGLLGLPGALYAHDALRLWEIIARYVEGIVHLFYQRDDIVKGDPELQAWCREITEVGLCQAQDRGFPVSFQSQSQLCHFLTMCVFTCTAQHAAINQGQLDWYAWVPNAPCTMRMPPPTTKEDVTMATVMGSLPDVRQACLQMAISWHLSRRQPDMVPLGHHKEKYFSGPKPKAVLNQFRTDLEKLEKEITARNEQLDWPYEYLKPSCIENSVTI"}, "source": "PubChem BioAssay AID1671190", "about": "(National Center for Advancing Translational Sciences (NCATS), 2021)", "note": "About 6,100 (1.1%) of roughly 580,000 compounds were called active. This list was built around the results that the source calls inconclusive (neither active nor inactive); the mix of calls is not that of the screen. Calls come from the whole dose curve; as a rule, active = well fitted inhibition curve with a large enough effect; inconclusive = small, poorly fitted or top-dose-only effect, or another doubt; inactive = no such curve, though single readings can be large or run the other way. Where the call is inconclusive, the potency comes from a doubtful curve fit. % is set by controls: 0 for no effect and ±100 for the full control effect; potency is the fitted concentration of half-maximal effect."}
{"target": "Polyunsaturated fatty acid lipoxygenase ALOX12 (Homo sapiens) (UniProt P18054)", "experiment": "Primary qHTS assay for inhibitors of human arachidonate 12S-lipoxygenase (ALOX12): Round 2", "conditions": "purified 12hLO, xylenol orange hydroperoxide absorbance; activity change, negative = inhibition: at 108 µM (top of the series) unless noted", "method_in_brief": "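Purified human 12hLO (150 nM final) in 25 mM Hepes, 0.01% Triton X-100, pH 7.0 was preincubated 15 min at room temperature with compound. Then 40 uM arachidonic acid was added, 30 min. Hydroperoxide was read by Fe-XO absorbance ratio 573/405 nm.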"}
{"smiles": "COc1ccc(/C=C/C(=O)c2cc(C)ccc2OC(=O)c2cccs2)cc1OC", "Potency": "inconclusive: 4.47 µM [inhibitor, full curve, poor fit]"}
{"smiles": "COc1ccc(CC(=O)N2CCN(c3nc(-c4ccccc4)no3)CC2)cc1", "activity change, negative = inhibition": "inactive: 8.42%"}
{"smiles": "Cc1ccc(/C=C2\\C(=O)ON=C2c2ccccc2)o1", "Potency": "inconclusive: 89.1 µM [inhibitor, single point]"}
{"smiles": "CC(=O)OCC1=C(C(=O)O)N2C(=O)C(NC(=O)CC(C)c3ccccc3)C2SC1", "note": "(stereo not given)", "Potency": "inconclusive: 35.5 µM [inhibitor, partial curve, poor fit]"}
{"smiles": "Cc1ccc(NC(=O)CSc2nc3ccc(NC(=O)CCc4ccccc4)cc3s2)c(C)c1", "Potency": "inconclusive: 50.1 µM [inhibitor, partial curve, poor fit]"}
{"smiles": "CCOC(=O)c1c(NC(=O)c2ccco2)n(C2CCCCC2)c2nc3ccccc3nc12", "Potency": "inconclusive: 50.1 µM [inhibitor, partial curve]"}
{"smiles": "Cc1cc(C)cc(N(CCC#N)C(=O)COC(=O)c2csc(NCc3ccccc3)n2)c1", "Potency": "inconclusive: 8.91 µM [inhibitor, partial curve, poor fit]"}
{"smiles": "COc1ccccc1-c1cc(C(=O)O)c2cc(C)cc(C)c2n1", "Potency": "active: 28.2 µM"}
{"smiles": "O=C(CCCCn1c(=O)c2ccccc2n(Cc2ccccc2F)c1=O)NCc1ccccc1Cl", "Potency": "inconclusive: 112 µM [inhibitor, partial curve, poor fit]"}
{"smiles": "COc1ccc(N2CCN(C(=O)CSc3nnc(NC(=O)C4CCC4)s3)CC2)cc1", "activity change, negative = inhibition": "inactive: 1.35%"}
{"smiles": "O=C(COc1ccccc1-c1noc(-c2ccc(Cl)cc2)n1)NCc1ccccc1", "Potency": "inconclusive: 25.1 µM [inhibitor, single point]"}
{"smiles": "Cc1cc(C)c2cc(C(=O)N(C)C3CCN(C)CC3)[nH]c2c1", "activity change, negative = inhibition": "inactive: 25.8%"}
{"smiles": "COCCNC(=O)NC(=O)COC(=O)c1ccc2[nH]c3c(c2c1)CCCC3", "activity change, negative = inhibition": "inactive: -12.6%"}
{"smiles": "COc1ccc(OCCOC(=O)Cc2coc3cc(C)c(C)cc23)cc1", "activity change, negative = inhibition": "inactive: 8.54%"}
{"smiles": "CCOc1ccc(NC(=S)NC(=O)/C=C/c2ccc(OC)c(OC)c2)c([N+](=O)[O-])c1", "activity change, negative = inhibition": "inactive: -23.8%"}
{"smiles": "Cc1oc(-c2ccccc2F)nc1CSCC(=O)NCCc1ccccc1", "activity change, negative = inhibition": "inactive: -2.66%"}
{"smiles": "CCNc1c(NC(=O)Nc2ccccc2F)c(=O)oc2ccccc12", "Potency": "inconclusive: 50.1 µM [inhibitor, partial curve, poor fit]"}
{"smiles": "COc1cccc(OC)c1C(=O)Nc1cccc(-c2nc3ccc(C)cc3o2)c1", "activity change, negative = inhibition": "inactive: -20%"}
{"smiles": "CCCN1CCCC(c2cccc(S(C)(=O)=O)c2)C1", "note": "(stereo not given)", "activity change, negative = inhibition": "inactive: 0%"}
{"smiles": "CCONC(=O)c1ccc(OC)cc1O", "activity change, negative = inhibition": "inactive: 31.3%"}
{"smiles": "CCOc1ccc(C(=O)Nc2ccc3oc(-c4cccc(C)c4)nc3c2)cc1[N+](=O)[O-]", "Potency": "inconclusive: 44.7 µM [inhibitor, partial curve, poor fit]"}
{"smiles": "Cc1ccc2c(=O)n3c(nc2c1)C(Cc1ccccc1)NC(=O)c1cccnc1-3", "note": "(stereo not given)", "Potency": "inconclusive: 0.562 µM [inhibitor, full curve, poor fit]"}
{"smiles": "N#C/C(=C\\c1ccccc1)C(=O)NNS(=O)(=O)c1cccc([N+](=O)[O-])c1", "Potency": "inconclusive: 79.4 µM [inhibitor, partial curve, poor fit]"}
{"smiles": "COc1ccccc1CNC(=O)c1ccc2c(c1)N(Cc1ccc(C)cc1)CCS2", "activity change, negative = inhibition": "inactive: -10.8%"}
{"smiles": "CCCCOc1ccc(NC(=O)CC(C)C)c2cccnc12", "activity change, negative = inhibition": "inactive: 7.68%"}
{"smiles": "COC(=O)c1[nH]c(=O)c2ccccc2c1OCc1ccccc1", "Potency": "inconclusive: 112 µM [inhibitor, partial curve, poor fit]"}
{"smiles": "CCCCN1CNC(=S)N(CCc2ccccc2)C1", "Potency": "inconclusive: 56.2 µM [inhibitor, partial curve, poor fit]"}
{"smiles": "O=C(COC(=O)c1cccc(NC(=O)c2cccs2)c1)c1ccccc1", "activity change, negative = inhibition": "inactive: -5.75%"}
{"smiles": "Cc1ccc(C)c(C(C)NC(=S)NCc2ccc(F)cc2)c1", "note": "(stereo not given)", "Potency": "inconclusive: 50.1 µM [inhibitor, partial curve, poor fit]"}
{"smiles": "Clc1cccc(CSc2ncn(-c3ccccc3)n2)c1", "Potency": "inconclusive: 35.5 µM [inhibitor, partial curve, poor fit]"}
{"smiles": "c1cncc(-c2ccc3ncnc(N4CCNCC4)c3c2)c1", "Potency": "inconclusive: 6.31 µM [inhibitor, full curve, poor fit]"}
{"smiles": "N#CCC(=O)Nc1ccc(C(=O)NCCC(c2ccccc2)c2ccccc2)cc1", "activity change, negative = inhibition": "inactive: -0.0924%"}
{"smiles": "Clc1cccc(Nc2ncnc3c2cnn3-c2ccccc2)c1", "Potency": "inconclusive: 50.1 µM [inhibitor, single point]"}
{"smiles": "Cc1ccc(-c2cc(C(=O)Nc3ccc(S(=O)(=O)Nc4onc(C)c4C)cc3)c3ccccc3n2)cc1", "Potency": "active: 35.5 µM"}
{"smiles": "CC(=O)N(C1CC1)C1CCOC2(CCN(C(=O)Nc3ccc4c(c3)OCCO4)CC2)C1", "note": "(stereo not given)", "activity change, negative = inhibition": "inactive: 12.7%"}
{"smiles": "CC1CCC2(CC1)NC(=S)N(c1ccccc1)N2", "note": "(stereo not given)", "Potency": "inconclusive: 0.398 µM [inhibitor, full curve, poor fit]"}
{"smiles": "COc1ccc2cc(C3c4cc(OC)c(OC)cc4CCN3C(=O)c3ccco3)c(=O)[nH]c2c1", "note": "(stereo not given)", "Potency": "inconclusive: 50.1 µM [inhibitor, partial curve, poor fit]"}
{"smiles": "O=C(CN1C(=O)NC2(CCOCC2)C1=O)Nc1ccc(Cl)cc1", "Potency": "inconclusive: 5.01 µM [inhibitor, full curve]"}
{"smiles": "CC(C)n1c(CN(C)Cc2ccccc2)nc2c1c(=O)n(C)c(=O)n2C", "Potency": "inconclusive: 5.62 µM [inhibitor, full curve, poor fit]"}
{"smiles": "CCCCNc1ncnc2c1CN(C1CCCNCC1)C(=O)CN2C", "note": "(stereo not given)", "Potency": "inconclusive: 2.24 µM [inhibitor, partial curve, poor fit]"}
{"smiles": "Cc1ccc(-c2csc3ncn(CC(=O)N4CCOCC4)c(=O)c23)cc1C", "activity change, negative = inhibition": "inactive: -0.797%"}
{"smiles": "CCn1c(SCC(=O)NCC2CCCO2)nc2ccccc21", "note": "(stereo not given)", "Potency": "inconclusive: 22.4 µM [inhibitor, partial curve, poor fit]"}
{"smiles": "CCOc1cccc(/C=C/c2ccc3cccc(O)c3n2)c1OC", "Potency": "inconclusive: 50.1 µM [inhibitor, partial curve, poor fit]"}
{"smiles": "COc1ccc(OCCOC(=O)c2ccc3nccnc3c2)cc1", "activity change, negative = inhibition": "inactive: 51.3%"}
{"smiles": "CN(C)CCCN(C(=O)c1ccc(S(=O)(=O)N2CCCCCC2)cc1)c1nc2c(F)cccc2s1", "Potency": "inconclusive: 44.7 µM [inhibitor, partial curve, poor fit]"}
